Reference: PMC12805896
These are yes or no findings as the source states them, for the method shown. Binding seen in cells or lysates may run through a third protein. For part of these data: Binding can be weak; no strength is given. Tags and fused reporters may be left off the sequences shown.

Tests used:
[1] = molecular target: T1, C-terminally tagged NF-κB/Relish (UAS-Relish-V5), transgenic flies (Drosophila melanogaster) (UniProt Q94527); assay: co-IP; anti-V5 immunoprecipitation from whole-fly lysates (TubGal4ts > UAS-HDAC6-HA; UAS-Relish-V5); flies fed ad libitum or fasted; washes with IP lysis buffer and IP lysis buffer with 500 mM NaCl; immunoblot
T1 sequence: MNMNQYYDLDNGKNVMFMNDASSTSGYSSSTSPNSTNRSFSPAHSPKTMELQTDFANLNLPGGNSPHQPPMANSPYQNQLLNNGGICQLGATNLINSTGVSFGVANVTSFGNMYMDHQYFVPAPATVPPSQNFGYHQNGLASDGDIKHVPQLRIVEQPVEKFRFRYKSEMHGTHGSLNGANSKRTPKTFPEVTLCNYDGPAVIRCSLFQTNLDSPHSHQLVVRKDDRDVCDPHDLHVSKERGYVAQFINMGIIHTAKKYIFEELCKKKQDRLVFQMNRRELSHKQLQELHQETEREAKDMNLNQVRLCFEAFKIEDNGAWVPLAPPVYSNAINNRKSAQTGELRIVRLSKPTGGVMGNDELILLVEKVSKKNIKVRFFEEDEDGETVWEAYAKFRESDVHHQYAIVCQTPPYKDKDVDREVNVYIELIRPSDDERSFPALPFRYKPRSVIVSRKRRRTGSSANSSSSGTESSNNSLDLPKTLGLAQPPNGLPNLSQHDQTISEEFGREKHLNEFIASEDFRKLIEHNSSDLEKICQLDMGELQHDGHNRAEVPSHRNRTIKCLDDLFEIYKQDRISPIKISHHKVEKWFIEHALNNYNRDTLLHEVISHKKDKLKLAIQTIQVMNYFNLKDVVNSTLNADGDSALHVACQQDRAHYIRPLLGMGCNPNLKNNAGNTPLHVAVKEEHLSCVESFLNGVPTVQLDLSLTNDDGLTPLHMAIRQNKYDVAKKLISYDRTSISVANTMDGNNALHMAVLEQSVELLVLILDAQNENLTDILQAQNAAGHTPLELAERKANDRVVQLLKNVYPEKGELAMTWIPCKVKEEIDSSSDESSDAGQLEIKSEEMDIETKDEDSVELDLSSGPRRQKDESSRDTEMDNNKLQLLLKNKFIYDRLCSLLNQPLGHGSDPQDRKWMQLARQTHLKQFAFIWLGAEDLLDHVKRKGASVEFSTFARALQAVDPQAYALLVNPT

[2] = molecular target: T2, V5-tagged Relish (pAC5.1-Relish-V5) (Drosophila melanogaster) (UniProt Q94527); assay: co-IP; anti-V5 immunoprecipitation (Protein A/G magnetic beads) from cleared lysates of S2R+ cells transiently expressing HDAC6-HA and Relish-V5; cells under serum starvation; washes with IP lysis buffer and IP lysis buffer with 500 mM NaCl; immunoblot
T2 sequence: T1 sequence

[3] = molecular target: T2, V5-tagged Relish (pAC5.1-Relish-V5) (Drosophila melanogaster); assay: condition: only normal culture conditions (no serum starvation); co-IP; anti-V5 immunoprecipitation (Protein A/G magnetic beads) from cleared lysates of S2R+ cells transiently expressing HDAC6-HA and Relish-V5; cells under normal culture conditions; washes with IP lysis buffer and IP lysis buffer with 500 mM NaCl; immunoblot

Substance	binding [1]	binding [2]	binding [3]
C-terminally tagged HDAC6 (UAS-HDAC6-HA), transgenic flies (Drosophila melanogaster) (enzyme)	binds		
HA-tagged HDAC6 (pAC5.1-HDAC6-HA) (Drosophila melanogaster) (enzyme)		binds	no binding
